Reference: publication PMC11481484
These are yes or no findings as the source states them, for the method shown. In cells and extracts the contact can be indirect. Some entries that bind do so weakly or less than the wild type.

Chains of the proteins cited; added tags and fusions are not shown. Residues count along the entry.
Rubella virus E2 envelope glycoprotein, wild type (P08563, residues 301-582): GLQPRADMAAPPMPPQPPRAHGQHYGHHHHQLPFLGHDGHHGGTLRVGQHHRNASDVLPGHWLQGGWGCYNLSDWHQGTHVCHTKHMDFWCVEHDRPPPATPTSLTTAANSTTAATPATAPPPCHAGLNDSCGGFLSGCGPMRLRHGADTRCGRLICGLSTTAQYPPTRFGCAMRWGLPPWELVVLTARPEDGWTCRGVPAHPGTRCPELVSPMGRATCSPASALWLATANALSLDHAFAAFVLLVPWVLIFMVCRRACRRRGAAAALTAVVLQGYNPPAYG
Rubella virus E1 envelope glycoprotein (Rubella virus (RuV)) (P08563, residues 583-1063): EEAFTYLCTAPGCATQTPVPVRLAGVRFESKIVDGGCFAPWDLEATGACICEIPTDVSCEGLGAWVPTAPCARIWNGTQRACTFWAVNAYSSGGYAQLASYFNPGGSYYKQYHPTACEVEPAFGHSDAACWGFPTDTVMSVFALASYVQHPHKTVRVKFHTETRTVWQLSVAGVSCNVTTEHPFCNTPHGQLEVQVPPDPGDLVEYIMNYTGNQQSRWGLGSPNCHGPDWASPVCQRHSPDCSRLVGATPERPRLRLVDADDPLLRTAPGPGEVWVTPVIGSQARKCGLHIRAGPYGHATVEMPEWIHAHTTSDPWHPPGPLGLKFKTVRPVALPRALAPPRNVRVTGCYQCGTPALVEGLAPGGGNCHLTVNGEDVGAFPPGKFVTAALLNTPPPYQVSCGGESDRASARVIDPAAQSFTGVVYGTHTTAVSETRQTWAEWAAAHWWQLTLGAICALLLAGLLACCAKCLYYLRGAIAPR

Key:
[1] = molecular target: Rubella virus E1 envelope glycoprotein (Rubella virus (RuV)) (UniProt P08563); experiment: cross-linking + co-IP; BHK-21 cells 42 h post-electroporation with WT or mutant viral RNA cross-linked with 1 mM DSP in PBS, 10 min, room temperature, quenched with 125 mM glycine; lysis buffer 2 (10 mM sodium phosphate pH 7.4, 50 mM NaCl, 1% Triton X-100); IP with mAb E1-20 or control mAb; cross-link reversed by DTT; western blot with RuV pAb
[2] = molecular target: Rubella virus E1 envelope glycoprotein (Rubella virus (RuV)) (UniProt P08563); experiment: co-IP; no cross-linker; lysates of BHK-21 cells 42 h post-electroporation with WT or E2 Y281A viral RNA; lysis buffer 1 (50 mM TRIS pH 7.4, 100 mM NaCl, 1 mM EDTA, 1% Triton X-100); precleared, mAb E1-20 on ice 1 h, Protein A agarose 90 min at 4°C; western blot with RuV pAb

Substance: Rubella virus E2 envelope glycoprotein, wild type (from UniProt P08563 301-582)
- binding [1]: binds
- binding [2]: binds
